Data from PMC9221416.

Experiments:
Experiment in all cases: cell aggregation assay; HEK293 cells co-expressing EGFP and Lphn3 variants mixed 1:1 with HEK293 cells co-expressing DsRed and Flrt3 or Teneurin 2; DMEM, 50 mM HEPES-NaOH pH 7.4, 10% FBS, 10 mM CaCl2, 10 mM MgCl2; 2 h under agitation at room temperature; epifluorescence microscopy, aggregation index
[1] = biological target: human Lphn3^HA/Flag (latrophilin-3, wild type) (human)
[2] = biological target: human Lphn3^HA/Flag K561N (human)
[3] = biological target: human Lphn3^HA/Flag S810L (human)
[4] = biological target: human Lphn3^HA/Flag A760G (human)
[5] = biological target: human Lphn3^HA/Flag E811Q (human)
[6] = biological target: human Lphn3^HA/Flag D798H (human)

Measured: binding

B1: membrane-anchored human Flrt3 (ligand, UniProt Q9NZU0 29-649)
chain: KSCPSVCRCDAGFIYCNDRFLTSIPTGIPEDATTLYLQNNQINNAGIPSDLKNLLKVERIYLYHNSLDEFPTNLPKYVKELHLQENNIRTITYDSLSKIPYLEELHLDDNSVSAVSIEEGAFRDSNYLRLLFLSRNHLSTIPWGLPRTIEELRLDDNRISTISSPSLQGLTSLKRLVLDGNLLNNHGLGDKVFFNLVNLTELSLVRNSLTAAPVNLPGTNLRKLYLQDNHINRVPPNAFSYLRQLYRLDMSNNNLSNLPQGIFDDLDNITQLILRNNPWYCGCKMKWVRDWLQSLPVKVNVRGLMCQAPEKVRGMAIKDLNAELFDCKDSGIVSTIQITTAIPNTVYPAQGQWPAPVTKQPDIKNPKLTKDHQTTGSPSRKTITITVKSVTSDTIHISWKLALPMTALRLSWLKLGHSPAFGSITETIVTGERSEYLVTALEPDSPYKVCMVPMETSNLYLFDETPVCIETETAPLRMYNPTTTLNREQEKEPYKNPNLPLAAIIGGAVALVTIALLALVCWYVHRNGSLFSRNCAYSKGRRRKDDYAEAGTKKDNSILEIRETSFQMLPISNEPISKEEFVIHTIFPPNGMNLYKNNHSESSSNRSYRDSGIPDSDHSHS
binds: all assays above

These are yes or no findings as the source states them, for the method shown. Binding calls can cover weak binding; strength is not graded here.
